# In all, about 360,000 compounds went through this assay and about 7,500 (2.1%) were called active. These results got no clear call from the source, so the numbers are uncertain. Calls follow the shape of the dose curve; as a rule, active = well fitted inhibition curve with a large enough effect; inconclusive = small, poorly fitted or top-dose-only effect, or effect the other way; inactive = flat fitted curve, though single readings scatter.
# Test: Nrf2 qHTS screen for inhibitors; also: nearly all actives have a fitted effect of over 60% in size
# Settings: A549 ARE-Fluc reporter, luciferase luminescence, 18-24 h
# Potency is read from the fitted curve at half-maximal effect.
row,Structure (SMILES),Potency
1,COc1cccc(C(=O)N(c2cc(C)cc(C)c2)C2CCN(C(=O)OC(C)(C)C)CC2)c1,inconclusive: 29.1 µM
2,Fc1ccccc1NC1CCN(Cc2ccccc2)CC1,inconclusive: 6.51 µM
3,Cc1cc(N(CCCl)CCCl)ccc1C=O,inconclusive: 1.3 µM
4,O=C(NCC1(N2CCOCC2)CCCCC1)c1ccc([N+](=O)[O-])cc1,inconclusive: 25.9 µM
5,CN1CCC(Nc2cccc(F)c2)CC1,inconclusive: 20.6 µM
6,COc1ccc(CN(CCCl)CCCl)cc1Cl,inconclusive: 29.1 µM
7,CC(C)c1ccc(NC2CCN(C(=O)OC(C)(C)C)CC2)cc1,inconclusive: 29.1 µM
8,COc1ccc(NC2CCN(C(=O)OC(C)(C)C)CC2)cc1,inconclusive: 29.1 µM
9,COc1cc(C(=O)NCC2(N(C)C)CCCCC2)ccc1OC(F)F,inconclusive: 2.06 µM
10,CCCCOc1ccc(C(=O)NCC2(N3CCOCC3)CCCCC2)cc1,inconclusive: 20.6 µM
11,Cc1cc(C)cc(N(C(=O)c2ccccc2)C2CCN(C(=O)OC(C)(C)C)CC2)c1,inconclusive: 25.9 µM
12,COc1ccc(C(=O)NCC2(N3CCCCC3)CCCCC2)c(OC)c1OC,inconclusive: 32.6 µM

# — PubChem BioAssay AID504444 (National Center for Advancing Translational Sciences (NCATS), 2011)
